# Data: the supplement of paper PMC8728848
# This is one part of the list.
# B1: NKp30 (Homo sapiens), O14931 (protein)
# chain: LWVSQPPEIRTLEGSSAFLPCSFNASQGRLAIGSVTWFRDEVVPGKEVRNGTPEFRGRLAPLASSRFLHDHQAELHIRDVRGHDASIYVCRVEVLGLGVGTGNGTRLVVEKEHPQLG
# Assays:
# Experiment in all cases: glycan array binding signal (z-score within array); higher = stronger binding
# Settings in all cases: glycan notation: IUPAC condensed, linker removed
# [1] = target: Man(a1-3)[Man(a1-6)]Man(a1-6)[Man(a1-3)]Man(b1-4)GlcNAc(b1-4)GlcNAc
# In short: (§1)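 Columns mapping to the same glycan were averaged after glycan names were converted to IUPAC-condensed notation. The data come from 3228 arrays in the Consortium for Functional Glycomics database, limited to those with an available protein sequence. Binding is reported as a within-array Z-score averaged across arrays of one protein sequence and across linkers.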
# [2] = target: Man(a1-3)[Man(a1-6)]Man(b1-4)GlcNAc(b1-4)GlcNAc
# In short: as §1
# [3] = target: Man(b1-4)GlcNAc
# In short: as §1
# [4] = target: Neu5Ac(a2-3)Gal
# In short: as §1
# [5] = target: Neu5Ac(a2-3)Gal(b1-3)GalNAc
# In short: as §1
# [6] = target: Neu5Ac(a2-3)Gal(b1-3)GalNAc(b1-3)Gal(a1-4)Gal(b1-4)Glc
# In short: as §1
# [7] = target: Neu5Ac(a2-3)Gal(b1-3)GalNAc(b1-4)[Neu5Ac(a2-3)]Gal(b1-4)Glc
# In short: as §1
# [8] = target: Neu5Ac(a2-3)Gal(b1-3)GalNAc6S
# In short: as §1
# [9] = target: Neu5Ac(a2-3)Gal(b1-3)GlcNAc
# In short: as §1
# [10] = target: Neu5Ac(a2-3)Gal(b1-3)GlcNAc(b1-3)Gal(b1-3)GlcNAc
# In short: as §1
# [11] = target: Neu5Ac(a2-3)Gal(b1-3)GlcNAc(b1-3)Gal(b1-4)GlcNAc
# In short: as §1
# [12] = target: Neu5Ac(a2-3)Gal(b1-3)GlcNAc6S
# In short: as §1
# [13] = target: Neu5Ac(a2-3)Gal(b1-3)[Fuc(a1-4)]GlcNAc
# In short: as §1
# [14] = target: Neu5Ac(a2-3)Gal(b1-3)[Fuc(a1-4)]GlcNAc(b1-3)Gal(b1-4)[Fuc(a1-3)]GlcNAc
# In short: as §1
# [15] = target: Neu5Ac(a2-3)Gal(b1-3)[Neu5Ac(a2-3)Gal(b1-4)]GlcNAc
# In short: as §1
# [16] = target: Neu5Ac(a2-3)Gal(b1-3)[Neu5Ac(a2-6)]GalNAc
# In short: as §1
# [17] = target: Neu5Ac(a2-3)Gal(b1-4)Glc
# In short: as §1
# [18] = target: Neu5Ac(a2-3)Gal(b1-4)GlcNAc
# In short: as §1
# [19] = target: Neu5Ac(a2-3)Gal(b1-4)GlcNAc(b1-3)Gal(b1-3)GlcNAc
# In short: as §1
# [20] = target: Neu5Ac(a2-3)Gal(b1-4)GlcNAc(b1-3)Gal(b1-4)GlcNAc
# In short: as §1
# [21] = target: Neu5Ac(a2-3)Gal(b1-4)GlcNAc(b1-3)Gal(b1-4)GlcNAc(b1-3)Gal(b1-4)GlcNAc
# In short: as §1
# [22] = target: Neu5Ac(a2-3)Gal(b1-4)GlcNAc(b1-3)Gal(b1-4)[Fuc(a1-3)]GlcNAc
# In short: as §1
# [23] = target: Neu5Ac(a2-3)Gal(b1-4)GlcNAc(b1-6)[Gal(b1-3)]GalNAc
# In short: as §1
# [24] = target: Neu5Ac(a2-3)Gal(b1-4)GlcNAc6S
# In short: as §1
# [25] = target: Neu5Ac(a2-3)Gal(b1-4)[Fuc(a1-3)]GlcNAc
# In short: as §1
# [26] = target: Neu5Ac(a2-3)Gal(b1-4)[Fuc(a1-3)]GlcNAc(b1-3)Gal
# In short: as §1
# [27] = target: Neu5Ac(a2-3)Gal(b1-4)[Fuc(a1-3)]GlcNAc(b1-3)Gal(b1-4)GlcNAc
# In short: as §1
# [28] = target: Neu5Ac(a2-3)Gal(b1-4)[Fuc(a1-3)]GlcNAc(b1-3)Gal(b1-4)[Fuc(a1-3)]GlcNAc(b1-3)Gal(b1-4)[Fuc(a1-3)]GlcNAc
# In short: as §1
# [29] = target: Neu5Ac(a2-3)Gal(b1-4)[Fuc(a1-3)]GlcNAc6S
# In short: as §1
# [30] = target: Neu5Ac(a2-3)Gal6S(b1-4)GlcNAc
# In short: as §1
# [31] = target: Neu5Ac(a2-3)Gal6S(b1-4)[Fuc(a1-3)]GlcNAc
# In short: as §1
# [32] = target: Neu5Ac(a2-3)GalNAc
# In short: as §1
# [33] = target: Neu5Ac(a2-3)GalNAc(b1-4)GlcNAc
# In short: as §1
# [34] = target: Neu5Ac(a2-3)[GalNAc(b1-4)]Gal(b1-4)Glc
# In short: as §1
# [35] = target: Neu5Ac(a2-3)[GalNAc(b1-4)]Gal(b1-4)GlcNAc
# In short: as §1
# [36] = target: Neu5Ac(a2-3)[Neu5Ac(a2-6)]GalNAc
# In short: as §1
# [37] = target: Neu5Ac(a2-6)Gal(b1-4)GlcNAc
# In short: as §1
# [38] = target: Neu5Ac(a2-6)Gal(b1-4)GlcNAc(b1-2)Man(a1-3)[Neu5Ac(a2-6)Gal(b1-4)GlcNAc(b1-2)Man(a1-6)]Man(b1-4)GlcNAc(b1-4)GlcNAc
# In short: as §1
# [39] = target: Neu5Ac(a2-6)Gal(b1-4)GlcNAc(b1-3)Gal(b1-4)GlcNAc
# In short: as §1
# [40] = target: Neu5Ac(a2-6)Gal(b1-4)GlcNAc(b1-3)Gal(b1-4)[Fuc(a1-3)]GlcNAc(b1-3)Gal(b1-4)[Fuc(a1-3)]GlcNAc
# In short: as §1
# [41] = target: Neu5Ac(a2-6)Gal(b1-4)GlcNAc6S
# In short: as §1
# [42] = target: Neu5Ac(a2-6)GalNAc
# In short: as §1
# [43] = target: Neu5Ac(a2-6)GalNAc(b1-4)GlcNAc
# In short: as §1
# [44] = target: Neu5Ac(a2-8)Neu5Ac
# In short: as §1
# [45] = target: Neu5Ac(a2-8)Neu5Ac(a2-3)Gal(b1-4)Glc
# In short: as §1
# [46] = target: Neu5Ac(a2-8)Neu5Ac(a2-3)[GalNAc(b1-4)]Gal(b1-4)Glc
# In short: as §1
# [47] = target: Neu5Ac(a2-8)Neu5Ac(a2-8)Neu5Ac
# In short: as §1
# [48] = target: Neu5Ac(a2-8)Neu5Ac(a2-8)Neu5Ac(a2-3)Gal(b1-4)Glc
# In short: as §1
# [49] = target: Neu5Ac(a2-8)Neu5Ac(a2-8)Neu5Ac(a2-3)[GalNAc(b1-4)]Gal(b1-4)Glc
# In short: as §1
# [50] = target: Neu5Ac(a2-8)Neu5Ac(a2-8)Neu5Ac(a2-8)Neu5Ac(a2-3)[GalNAc(b1-4)]Gal(b1-4)Glc
# In short: as §1
# [51] = target: Neu5Ac9Ac(a2-6)Gal(b1-4)GlcNAc
# In short: as §1
# [52] = target: Neu5Gc(a2-3)Gal(b1-3)GlcNAc
# In short: as §1
# [53] = target: Neu5Gc(a2-3)Gal(b1-3)[Fuc(a1-4)]GlcNAc
# In short: as §1
# [54] = target: Neu5Gc(a2-3)Gal(b1-4)Glc
# In short: as §1
# [55] = target: Neu5Gc(a2-3)Gal(b1-4)GlcNAc
# In short: as §1
# [56] = target: Neu5Gc(a2-3)Gal(b1-4)[Fuc(a1-4)]GlcNAc
# In short: as §1
# [57] = target: Neu5Gc(a2-6)Gal(b1-4)GlcNAc
# In short: as §1
# [58] = target: Neu5Gc(a2-6)GalNAc
# In short: as §1
binder,measurement,setting,value
B1,glycan array binding signal (z-score),[1],0.331
same,glycan array binding signal (z-score),[2],-0.487
same,glycan array binding signal (z-score),[3],-0.69
same,glycan array binding signal (z-score),[4],-0.389
same,glycan array binding signal (z-score),[5],-0.805
same,glycan array binding signal (z-score),[6],0
same,glycan array binding signal (z-score),[7],0.29
same,glycan array binding signal (z-score),[8],0.003
same,glycan array binding signal (z-score),[9],-0.634
same,glycan array binding signal (z-score),[10],0.554
same,glycan array binding signal (z-score),[11],-0.764
same,glycan array binding signal (z-score),[12],0.205
same,glycan array binding signal (z-score),[13],-0.652
same,glycan array binding signal (z-score),[14],-0.537
same,glycan array binding signal (z-score),[15],0.776
same,glycan array binding signal (z-score),[16],-0.06
same,glycan array binding signal (z-score),[17],0.198
same,glycan array binding signal (z-score),[18],0.028
same,glycan array binding signal (z-score),[19],1.11
same,glycan array binding signal (z-score),[20],0.237
same,glycan array binding signal (z-score),[21],0.41
same,glycan array binding signal (z-score),[22],0.561
same,glycan array binding signal (z-score),[23],2.26
same,glycan array binding signal (z-score),[24],0.308
same,glycan array binding signal (z-score),[25],-0.128
same,glycan array binding signal (z-score),[26],0.518
same,glycan array binding signal (z-score),[27],-0.147
same,glycan array binding signal (z-score),[28],0.461
same,glycan array binding signal (z-score),[29],0.391
same,glycan array binding signal (z-score),[30],0.548
same,glycan array binding signal (z-score),[31],0.516
same,glycan array binding signal (z-score),[32],-0.59
same,glycan array binding signal (z-score),[33],-0.301
same,glycan array binding signal (z-score),[34],-0.062
same,glycan array binding signal (z-score),[35],-0.354
same,glycan array binding signal (z-score),[36],-0.269
same,glycan array binding signal (z-score),[37],-0.409
same,glycan array binding signal (z-score),[38],-0.02
same,glycan array binding signal (z-score),[39],0.506
same,glycan array binding signal (z-score),[40],-0.472
same,glycan array binding signal (z-score),[41],1.26
same,glycan array binding signal (z-score),[42],-0.787
same,glycan array binding signal (z-score),[43],-0.355
same,glycan array binding signal (z-score),[44],-0.006
same,glycan array binding signal (z-score),[45],-0.378
same,glycan array binding signal (z-score),[46],-0.18
same,glycan array binding signal (z-score),[47],0.13
same,glycan array binding signal (z-score),[48],0.125
same,glycan array binding signal (z-score),[49],-0.186
same,glycan array binding signal (z-score),[50],0.661
same,glycan array binding signal (z-score),[51],-0.472
same,glycan array binding signal (z-score),[52],-0.529
same,glycan array binding signal (z-score),[53],-0.522
same,glycan array binding signal (z-score),[54],-0.116
same,glycan array binding signal (z-score),[55],-0.604
same,glycan array binding signal (z-score),[56],-0.262
same,glycan array binding signal (z-score),[57],0.109
same,glycan array binding signal (z-score),[58],0.43

# Given as tab-separated lines: part of the list above.
binder	measurement	setting	value
B1	glycan array binding signal (z-score)	[2]	-0.487
same	glycan array binding signal (z-score)	[3]	-0.69
same	glycan array binding signal (z-score)	[22]	0.561
same	glycan array binding signal (z-score)	[27]	-0.147
